In paper PMC11232215 one finds binding data, which are given here for one substance.

Chains of the proteins cited; added tags and fusions are not shown.
UniProt O00567: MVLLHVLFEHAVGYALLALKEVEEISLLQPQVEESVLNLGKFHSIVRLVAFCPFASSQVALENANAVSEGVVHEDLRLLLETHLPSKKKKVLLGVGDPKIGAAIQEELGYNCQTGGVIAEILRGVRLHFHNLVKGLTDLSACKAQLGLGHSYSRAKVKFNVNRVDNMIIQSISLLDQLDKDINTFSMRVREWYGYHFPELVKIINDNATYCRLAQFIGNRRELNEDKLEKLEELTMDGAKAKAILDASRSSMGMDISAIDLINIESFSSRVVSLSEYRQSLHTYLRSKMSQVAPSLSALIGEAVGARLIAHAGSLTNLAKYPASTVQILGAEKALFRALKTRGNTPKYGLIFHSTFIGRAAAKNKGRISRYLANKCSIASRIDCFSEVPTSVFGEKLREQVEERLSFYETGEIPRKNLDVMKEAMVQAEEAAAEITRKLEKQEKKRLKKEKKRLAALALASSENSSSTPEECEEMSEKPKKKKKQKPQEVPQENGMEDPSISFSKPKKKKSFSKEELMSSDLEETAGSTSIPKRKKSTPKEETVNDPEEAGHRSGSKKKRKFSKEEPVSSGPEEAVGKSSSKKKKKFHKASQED
UniProt Q9GZX7: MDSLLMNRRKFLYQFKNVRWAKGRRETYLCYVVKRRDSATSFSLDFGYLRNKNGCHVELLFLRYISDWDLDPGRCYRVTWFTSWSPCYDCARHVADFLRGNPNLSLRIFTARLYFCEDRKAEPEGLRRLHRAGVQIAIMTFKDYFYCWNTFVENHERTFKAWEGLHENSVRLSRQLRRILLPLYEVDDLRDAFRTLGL

Results are given in words; binding and its absence hold for the method and conditions named. In cells and extracts the contact can be indirect. For some assays here: Where a sequence is shown, tags or fusion partners need not be part of it.

Experiment [1] concerns the target HA-tagged NOP56 (UniProt O00567). The experiment is described as follows: co-IP; HEK293T cells transfected with FLAG-tagged AID (or AIDΔC) and HA-tagged FBL (WT, D1, D2), NOP56 or NOP58; lysates in NETN-100 buffer 24 h after transfection; protein A or G beads with the precipitating antibody, 4 °C overnight; reciprocal ('reversible') co-IP; Western blot. On the technique in general: Immunoblotting shows a protein as a band on a membrane.

In experiment [2] the target is T1, HA-tagged NOP58 (UniProt Q9Y2X3).
T1 sequence: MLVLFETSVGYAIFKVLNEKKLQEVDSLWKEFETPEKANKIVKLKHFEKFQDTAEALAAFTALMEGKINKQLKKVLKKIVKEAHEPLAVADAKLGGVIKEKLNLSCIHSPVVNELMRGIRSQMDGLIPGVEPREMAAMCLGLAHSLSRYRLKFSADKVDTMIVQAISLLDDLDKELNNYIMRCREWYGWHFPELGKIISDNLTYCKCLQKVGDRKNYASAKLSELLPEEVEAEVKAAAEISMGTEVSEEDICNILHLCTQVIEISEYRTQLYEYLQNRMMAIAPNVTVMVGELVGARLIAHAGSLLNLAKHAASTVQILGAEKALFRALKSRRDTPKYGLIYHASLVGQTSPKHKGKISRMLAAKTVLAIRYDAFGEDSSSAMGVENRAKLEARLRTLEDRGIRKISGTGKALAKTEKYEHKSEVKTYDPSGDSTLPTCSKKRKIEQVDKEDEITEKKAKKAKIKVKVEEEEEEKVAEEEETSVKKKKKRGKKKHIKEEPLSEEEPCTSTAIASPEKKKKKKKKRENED
The description is as above.

Consider “FLAG-tagged activation-induced cytidine deaminase (AID), wild type (from UniProt Q9GZX7 1-198) (enzyme)”, for which the binding entry in experiment [1] and in experiment [2] was “no binding” throughout.
